Results on three molecules are retold here after US20150010566A1.

These are yes or no findings as the source states them, for the method shown. For part of these data: Binding calls can cover weak binding; strength is not graded here.

In test [1] the target is recombinant HA of H3 (A/Wyoming/03/2003) (Influenza A virus H3N2 A/Wyoming/03/2003 (host Human)). The test is described as follows: ELISA; recombinant HA coated; mAb; anti-human IgG-HRP. On the technique in general: In an ELISA, binding on a coated surface is turned into a signal by an enzyme label.
Test [2] addresses recombinant HA of H1 (A/New Caledonia/20/1999) (Influenza A virus H1N1 A/New Caledonia/20/1999 (host Human)). The test is described as follows: ELISA; recombinant HA coated; mAb.
The target of test [3] is recombinant HA of Influenza B (B/Florida/4/2006) (Influenza B virus B/Florida/4/2006 (host Human)). The test is described as follows: ELISA; recombinant HA coated; mAb.
The target of test [4] is recombinant HA of H1N1 (A/California/07/2009) (Influenza A virus H1N1 A/California/07/2009 (host Human)). The test is described as follows: ELISA; recombinant HA coated; mAb.
Test [5] deals with recombinant HA of H3 (A/Wyoming/03/2003) (Influenza A virus H3N2 A/Wyoming/03/2003 (host Human)). The test can be described thus: ELISA; recombinant HA coated 1 µg/ml; B cell supernatant; anti-human IgG-HRP.
Test [6] addresses recombinant HA of H1 (A/New Caledonia/20/1999) (Influenza A virus H1N1 A/New Caledonia/20/1999 (host Human)). The test is described as follows: ELISA; recombinant HA coated 1 µg/ml; B cell supernatant.

B1: AT10-002 (antibody, V domains shown)
VH: QLQLQESGPRLVKPSETLSLTCSVSGVSISSSNYYWGWIRQPPGKGLEWIGTIYHSGSTYYNPSLKSRLIISVDTSKNQFYLQLTSLTAADSAVYYCATGGGFGWSQTYFGYWGQGTLVTASS
VL: QSALTQPASVSGSPGQSITISCTGTSSDVGAYNYVSWYQHHPGKAPKLMIYDVTYRPSGVSTRFSGSKSGNTASLTISGLQAEDEADYYCSSQSRSSTLVIFGGGTKLTVLG
Turning to B1, the binding result in test [1] is “binds”; in test [2], “no binding”; in test [3], “no binding”; in test [4] it was “no binding”; in test [5], “binds”; in test [6], “no binding”.

B2: AT10-001 (antibody, V domains shown)
VH: EVQLLESGGGLVQPGGSLRLSCAASGFSFSTYAMSWVRQAPGKGLEWVSGISGSGESTYYADSVKGRFTVSRDNSKNTLYLQMNSLRAEDTAVYYCAKQGDHIAWLLRGINFDYWGQGVLVTVSS
VL: EIVLTQSPGTLSLSPGERATLSCRASQSVSSSYLAWYQQKPGQAPRLLIYGASTRATGIPDRFSGRGSGTDFTLTISSLEPEDFAVYYCQNYGSPFLFTFGPGTKVDIKR
Take B2: the binding entry is listed as “binds” in test [1]; “no binding” in test [2]; “no binding” in test [3]; “no binding” in test [4]; “binds” in test [5]; “no binding” in test [6].

B3: AT10-003 (antibody, V domains shown)
VH: QVHLVQSGAEVRKPGASVKVSCKVSGYTLNELSIHWLRQAPGRGLEWMGSFDPEDGETIYAQKFQGRVTMTGDTSTDTAYLELTSLRSEDTALYYCARGWGAVTSPFDFWGQGTLVTVSS
VL: DIVMTQSPLSLPVTPGEPASISCRSSQSLLHSNGHIYFDWYLQKPGQSPQLLIYLVSKRASGVPDRFSGSGSGTDFTLKISRVEAEDVGVYYCMQALETPFTFGPGTKVHIKR
For B3, the binding result in test [1] was “binds”; in test [2], “no binding”; in test [3], “no binding”; in test [4], “no binding”; in test [5], “binds”; in test [6] it was “no binding”.
